Some of the results follow. Shown are side measurements of this screen, not its main read-out; they come without a call. Most of these compounds were active or inconclusive in the main read-out, so they are no random draw. Potencies come from curve fits of mixed quality, noted in brackets.
Experiment: qHTS Assay for Lipid Storage Modulators in Drosophila S3 Cells;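 on cell number change: cells counted by Cell Tracker Red CMTPX staining in the red channel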
Settings: BODIPY lipid droplet fluorescence, 18-24 h; for cell number change: measured here: cell count max response, cells fed with added oleic acid
Method in brief: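 Laser-scanning cytometry quantifies lipid droplet accumulation (500–530 nm total intensity; droplet/cell object ratio) in oleic acid-fed (400 uM added) Drosophila S3 cells treated with a concentration series. 20 uM Triacsin C defined 100% inhibition.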

[1] = measured here: lipid fluorescence (Fed channel) AC50, cells fed with added oleic acid
[2] = measured here: cell number channel AC50, cells fed with added oleic acid

Row | SMILES | cell number change [%] | AC50 [1] | AC50 [2]
1 | C/C(=N\NC(=O)CSCc1ccc(Cl)cc1)c1ccc(NC(=O)c2ccccc2)cc1 | 24.5 | 0.13 µM [rising, full curve, poor fit] | –
2 | O=C(CCSc1nnc(-c2ccco2)o1)N1CCOCC1 | -7.51 | 29.1 µM [falling, single point] | –
3 | CCOc1ccc(C(=O)CN2CCN(S(=O)(=O)c3ccc(OC)cc3)CC2)cc1 | – | 29.1 µM [rising, single point] | –
4 | Cc1ccc(OCC(=O)N2CCN(C(=O)c3ccc([N+](=O)[O-])cc3)CC2)cc1 | -18.8 | 29.1 µM [falling, single point] | –
5 | CCOC(=O)CCc1c(C)c2ccc(OCc3nn[nH]n3)c(C)c2oc1=O | 0.908 | 0.731 µM [falling, full curve, poor fit] | –
6 | CC(C)C(NC(=O)c1ccccc1)C(=O)OCC(=O)N1CCCCC1 (stereo unspecified) | -1.3 | – | –
7 | NS(=O)(=O)c1cc(C(=O)N2CCNC(=O)C2)ccc1Cl | 22.9 | – | 0.0058 µM [rising, full curve, poor fit]
8 | CS(=O)(=O)N(CC(=O)Nc1cccc(Cl)c1)c1ccccc1Cl | 13.5 | 6.51 µM [falling, partial curve, poor fit] | 4.11 µM [falling, partial curve, poor fit]
9 | C=C1CCC(OC(C)=O)C2(C)CCC3C(C)C(=O)OC3C12O (stereo unspecified) | 5.63 | – | –
10 | CCCOc1cccc(C(=O)N(Cc2cccs2)C2CCS(=O)(=O)C2)c1 (stereo unspecified) | -9.31 | – | –
11 | O=C(O)c1cnc(-c2ccccc2)nc1Sc1ccc(Cl)cc1 | 20.7 | – | –
12 | CCOCCCN(C(=O)Cn1nnc(-c2ccc(OC)c(OC)c2)n1)C(CC)C(=O)NC1CCCC1 (stereo unspecified) | 112 | 6.51 µM [rising, single point] | 18.4 µM [rising, single point]
13 | C=CCN1C(=O)C(O)(CC(=O)c2ccccn2)c2ccccc21 (stereo unspecified) | – | 29.1 µM [falling, single point] | –
14 | Cc1ccc2sc(N(CCN(C)C)C(=O)c3ccc4ccccc4c3)nc2c1C | 30.7 | – | 2.31 µM [rising, full curve]
15 | C/C(=N\Nc1ccc(C)c(Cl)c1)c1cccnc1 | -13.5 | – | –
16 | Cc1c(Cl)cccc1NC(=S)NNc1ncc(C(F)(F)F)cc1Cl | -47.6 | 20.6 µM [falling, single point] | 20.6 µM [falling, single point]
17 | COc1ccc(-c2n[nH]c(C)c2-c2cc(OC)ccc2O)cc1 | 24.1 | 4.11 µM [rising, partial curve] | 0.184 µM [rising, full curve, poor fit]
18 | S=c1[nH]nc(-c2ccc3ccccc3n2)n1Cc1ccccc1 | -48.5 | 0.366 µM [falling, full curve, poor fit] | 32.6 µM [falling, partial curve]
19 | CC(C)CN(C(=O)COC(=O)CN1C(=O)c2ccccc2C1=O)c1c(N)n(Cc2ccccc2)c(=O)[nH]c1=O | -6.02 | – | –

Row | SMILES | cell number change [%] | AC50 [1] | AC50 [2]
20 | O=C(N/N=C/c1ccc(Cl)cc1Cl)c1n[nH]c2c1CCCC2 | -4.18 | – | –
21 | O=c1cc(C(F)(F)F)[nH]c2c(C(F)(F)F)cccc12 | -18.6 | 0.00461 µM [falling, full curve, poor fit] | –
22 | O=C(Cn1cc2c(n1)CCCCC2)NCc1ccccc1 | 21.3 | 16.4 µM [rising, partial curve, poor fit] | –
23 | O=C(c1ccccc1Sc1ccc([N+](=O)[O-])cc1Cl)N1CCOCC1 | -5.99 | – | –
24 | O=C(CN1C(=O)NC(Cc2c[nH]c3ccccc23)C1=O)Nc1ccc(F)c(F)c1F (stereo unspecified) | -0.846 | – | 0.00461 µM [rising, full curve, poor fit]
25 | O=C(N1CCOCC1)N1CCN(c2ccccc2)CC1 | 39.9 | 29.1 µM [rising, single point] | 25.9 µM [rising, partial curve, poor fit]
26 | O=C1C(c2ccc(F)cc2)N(Cc2ccc3c(c2)OCO3)C(=O)CN1C1CCCCCC1 (stereo unspecified) | – | 6.51 µM [rising, single point] | 4.11 µM [rising, single point]
27 | O=C1COc2ccc(NC(=O)N3CCN(c4ccc(F)cc4)CC3)cc2N1 | 12.3 | 25.9 µM [rising, single point] | –
28 | Cc1ccc(-n2cc3ccc([N+](=O)[O-])cc3n2)cc1 | -40.4 | 20.6 µM [falling, single point] | 16.4 µM [falling, single point]
29 | C[C@H](NC(=O)c1nc[nH]c1C(=O)N(C)Cc1ccccc1)C(=O)OC(C)(C)C | – | 1.16 µM [falling, partial curve] | –
30 | O=C1Cc2cc(NS(=O)(=O)c3cc(F)ccc3F)cc3c2N1CCC3 | – | 0.82 µM [rising, partial curve] | 1.3 µM [rising, partial curve]
31 | COc1ccc2[nH]c(=O)c(C3c4cc(OC)c(OC)cc4CCN3C(=O)c3ccco3)cc2c1 (stereo unspecified) | -5.13 | 6.51 µM [falling, partial curve] | –
32 | CSc1nc(O)c(C(c2ccc(C)cc2)c2c(O)nc(SC)[nH]c2=O)c(=O)[nH]1 | -12.1 | 18.4 µM [rising, single point] | –
33 | Cc1ccccc1CN(c1ccc(C(=O)Nc2cccnc2)cc1)S(C)(=O)=O | 102 | 2.59 µM [rising, partial curve] | 14.6 µM [rising, partial curve]
34 | CC(C)(C)C(=O)N(Cc1ccc(Cl)cc1)c1cnccn1 | -31.7 | 29.1 µM [falling, single point] | 29.1 µM [falling, single point]
35 | CNC(C)C#Cc1ccc2c(=O)c3c(OC)cccc3oc2c1 (stereo unspecified) | -39.2 | 29.1 µM [falling, single point] | –
36 | Cc1cc(NS(=O)(=O)c2ccc(NC(=O)c3ccco3)cc2)nc(C)n1 | 10.7 | – | –
37 | Cc1ccc(C)c(S(=O)(=O)ON2C(=O)c3ccccc3C2=O)c1 | -39.7 | – | 11.6 µM [falling, partial curve, poor fit]

From no. 21 up to 22, as listed above:
Row | SMILES | cell number change [%] | AC50 [1] | AC50 [2]
21 | O=c1cc(C(F)(F)F)[nH]c2c(C(F)(F)F)cccc12 | -18.6 | 0.00461 µM [falling, full curve, poor fit] | –
22 | O=C(Cn1cc2c(n1)CCCCC2)NCc1ccccc1 | 21.3 | 16.4 µM [rising, partial curve, poor fit] | –

From PubChem BioAssay AID2685 (National Center for Advancing Translational Sciences (NCATS), 2010)
